## Assay results

Data taken from PubChem BioAssay AID1159506, deposited by NCATS (2015).

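Luminescence from an EWS-FLI1 target-promoter (NR0B1) reporter, set against a CMV-promoter reporter, two days after silencing single genes in TC32 Ewing sarcoma cells. Each siRNA was applied at 20 nM. A z-score of the log NR0B1-over-CMV signal, less the median of siRNAs with the same seed; more negative means a stronger specific loss of the NR0B1 reporter.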

The strongest results of the screen are mostly left out here. Sequences are the guide (antisense) strand, without overhang.

UAUACUACAUAAGCUUUCC against KCNH7 read seed-corrected z-score 0.06067.
UGCGGUUCCAUUCUCUUCG against THRSP read seed-corrected z-score 0.1516.
UCCUUGUUCAUGCGGCUGU against B3GNT7 read seed-corrected z-score -0.4805.
UUCCAUAUCUGUGCGAGCC against DYM read seed-corrected z-score 0.581.
UAAUGGUUCACGUUGAUGG against NINJ1 read seed-corrected z-score -1.082.
UGUGUUAGAAUAGACAUGC against SPHAR read seed-corrected z-score 0.5961.
UCACUGACCUACGUUCAGC against ARMC9 read seed-corrected z-score -1.229.
UCUUCGUUCAGGUCAUUUC against NTN4 read seed-corrected z-score -0.9452.
UUUUGAUCUCCAGUGUUUG against GZMK read seed-corrected z-score -0.4902.
UCAGCGAUCUUGUUGAGGC against DAAM2 read seed-corrected z-score -0.1641.
UAGCCUUUGAUUUGGCUCU against PSENEN read seed-corrected z-score -0.6508.
UCCUUGUUCUGCAAAAACU against SPIRE2 read seed-corrected z-score 0.4899.
UUCUCGAAAUGUCAGGUUC against PLCXD2 read seed-corrected z-score 0.1425.
UUUAUUUCGCCAGAGUCGC against JSRP1 read seed-corrected z-score 0.5638.
UAGGAAAUCCACGACUUUC against TICAM2 read seed-corrected z-score 0.5809.
UGCAGGAUGAGGAUCUCCC against CCDC24 read seed-corrected z-score -0.499.
UGUAGCUUCCGGAACAUGC against TRAPPC2L read seed-corrected z-score -0.5331.
AUACUCUCUUUAUUGCUGC against OR4F29 read seed-corrected z-score 0.435.
AAGAUGUCAAGAUACGUCU against ACAP1 read seed-corrected z-score -0.1541.
UUGCUCUACAAAUAUCUCU against LIN7C read seed-corrected z-score 0.34.
UAUGUCAUUGAAGCGAGCC against ADAM29 read seed-corrected z-score -0.1464.
UAUACUUCGAAUCUGGUUC against LRRC57 read seed-corrected z-score 1.369.
UGACAUGAUAACGAUGGGC against PIRT read seed-corrected z-score -0.3008.
UUUGUUAGAGGUUUCGUCC against SH3BP2 read seed-corrected z-score 1.089.
UUGACUCCCAGUUUGAGCC against POLDIP3 read seed-corrected z-score 1.032.
UGCUGGUUCUUGUAGCUCC against IL21R read seed-corrected z-score 0.02254.
UUAACUUCUUCACUCGUUC against SYNCRIP read seed-corrected z-score -0.01842.
UAGGGUUUCAUUAAAUACU against FUT4 read seed-corrected z-score 0.5586.
AAAAUUCACAGGAUGUUGG against PRSS42 read seed-corrected z-score 0.7382.
UCUGGUAGCUCUCAGGACC against ASB16-AS1 read seed-corrected z-score 0.2808.
UUGGUUAAAGGUGACGGUG against STAB1 read seed-corrected z-score -0.2755.
UCGGUUUCCAAUAAACUGG against NOP56 read seed-corrected z-score -0.2201.
UCCGGGUCUGGGUAGAUCU against TRAF4 read seed-corrected z-score 0.5912.
AUAGCAACCACUGAUGCAC against HP1BP3 read seed-corrected z-score 0.9914.
UAUACAACUCAGUAUAGUC against SAMD8 read seed-corrected z-score 0.03555.
UUACUAUCCAGUCUAGCUG against ORC2 read seed-corrected z-score -0.2461.
UUGGAUAUGAUGAUGCUGU against OR8G5 read seed-corrected z-score 0.2768.
UAUGAUGCAAUCAGGACUG against LDHB read seed-corrected z-score 0.4335.
AACCUGUAAAACAACUGCU against TMEM47 read seed-corrected z-score 0.7871.
UCAUAUCUCUUAGCAAUGC against SUN3 read seed-corrected z-score -0.2077.
UGCUUUUUGACAGUUCUUG against GIMAP7 read seed-corrected z-score -0.2282.
UGCGUUUUCUCCUGUAUCC against WWTR1 read seed-corrected z-score -0.6713.
UCAUCGAUCAGGAGGAGGU against ZNF524 read seed-corrected z-score -0.3317.
UGGGAUGCUAGGAAUGGGC against GOLGA8G read seed-corrected z-score -1.276.
UUUAGAACAACGGGUUUUU against CYP3A4 read seed-corrected z-score 0.2211.
UUCUCCUCAUCUUUGAAUG against TNIP1 read seed-corrected z-score 0.2345.
UUCUUAAAAAGUAUCCUCU against SLC25A48 read seed-corrected z-score -0.4588.
UUAGUGCUGAGUCCCUUAG against PCSK1 read seed-corrected z-score -0.4128.
UGAGGGUUCAGUAGCUUCC against DGKQ read seed-corrected z-score -0.1056.
UAGGAGAUCAUAUGAUUCG against SLC30A5 read seed-corrected z-score 0.262.
UUGGUACUCAUGUCAACAC against ARAF read seed-corrected z-score 0.1715.
AACGGUCCAAUAGAUGUCC against GFRA3 read seed-corrected z-score -1.254.

Repeated from the top, 5 entries:

| strand | target gene | seed-corrected z-score |
|---|---|---|
| `UAUACUACAUAAGCUUUCC` | KCNH7 | 0.06067 |
| `UGCGGUUCCAUUCUCUUCG` | THRSP | 0.1516 |
| `UCCUUGUUCAUGCGGCUGU` | B3GNT7 | -0.4805 |
| `UUCCAUAUCUGUGCGAGCC` | DYM | 0.581 |
| `UAAUGGUUCACGUUGAUGG` | NINJ1 | -1.082 |